Test results taken from US10688131B2, “Peptides and scaffolds for use in immunotherapy against head and neck squamous cell carcinoma and other cancers” (Immatics Biotechnologies GmbH, priority 2016, dated 2020).
For some of these results: Expression grades refer to the transcript from which the peptide derives; gene names, where given, were looked up from the sequence.

Legend:
[1] = tested on: head and neck squamous cell carcinoma samples; assay: Identification and label-free LC-MS quantitation of HLA-presented peptides (presentation profile) on HNSCC versus normal tissues; parameters: species or system human; key: very highly over-presented on tumors compared to a panel of normal tissues (+++); highly over-presented on tumors compared to a panel of normal tissues (++); over-presented on tumors compared to a panel of normal tissues (+); details: presentation score: over-presentation on head and neck squamous cell carcinoma tumors compared to a panel of normal tissues
[2] = tested on: source genes in head and neck squamous cell carcinoma; assay: Expression profiling (RNASeq) of genes encoding the peptides; parameters: species or system human; key: very highly over-expressed in tumors compared to a panel of normal tissues (+++); highly over-expressed in tumors compared to a panel of normal tissues (++); over-expressed in tumors compared to a panel of normal tissues (+); details: expression score of source gene, tumors compared to a panel of normal tissues
additional tumor types = assay: LC-MS presentation of peptides on additional tumor types versus normal tissues; parameters: species or system human; details: for Other relevant organs/diseases: additional tumor types where over-presented on more than 5% of measured tumor samples, or presented on more than 5% with ratio of geometric means tumor vs normal larger than 3 (Table 4A); for Additional Entities: additional tumor types, same criteria, other normal tissue panel (Table 4B)

Row | Substance | Peptide Presentation [1] | Gene Expression [2] | Other relevant organs/diseases (additional tumor types) | Additional Entities (additional tumor types)
1 | 82: peptide found in DSG1 (gene looked up) (VLDINDNPPV; listed as Homo sapiens) [compound 82] | +++ | +++ | Melanoma | 
2 | 53: peptide found in LGALS7 (gene looked up) (RLVEVGGDVQL; listed as Homo sapiens) [compound 53] | +++ | +++ | Esophageal Cancer, Urinary bladder cancer | 
3 | 59: peptide found in DSP (gene looked up) (YLQNEVFGL; listed as Homo sapiens) [compound 59] |  | +++ | SCLC, NHL | 
4 | 91: peptide found in ODC1 (gene looked up) (MLFENMGAYTV; listed as Homo sapiens) [compound 91] | + | ++ | SCLC, CLL, NHL, Uterine Cancer | 
5 | 52 (LLFTGLVSGV; listed as Homo sapiens) [compound 52] | +++ |  | Esophageal Cancer | 
6 | 45 (GLIEWLENTV; listed as Homo sapiens) [compound 45] | +++ |  | SCLC, OC, Urinary bladder cancer | HCC
7 | 43 (AVLGGKLYV; listed as Homo sapiens) [compound 43] | +++ |  | CLL, NHL, AML, Melanoma, Uterine Cancer | RCC, GC, HCC
